In article PMC2935386:
For at least one entry, the source does not settle the construct or the ends of the probe. Weaker means in comparison with the reference protein, sequence or condition of that experiment. Where a protein sequence is shown, tags need not be part of it.

Molecular target: T1, TRβ1 DBD-LBD (TR DL, TRβ1ΔAB) (human) (UniProt P10828)
T1 sequence (looked up): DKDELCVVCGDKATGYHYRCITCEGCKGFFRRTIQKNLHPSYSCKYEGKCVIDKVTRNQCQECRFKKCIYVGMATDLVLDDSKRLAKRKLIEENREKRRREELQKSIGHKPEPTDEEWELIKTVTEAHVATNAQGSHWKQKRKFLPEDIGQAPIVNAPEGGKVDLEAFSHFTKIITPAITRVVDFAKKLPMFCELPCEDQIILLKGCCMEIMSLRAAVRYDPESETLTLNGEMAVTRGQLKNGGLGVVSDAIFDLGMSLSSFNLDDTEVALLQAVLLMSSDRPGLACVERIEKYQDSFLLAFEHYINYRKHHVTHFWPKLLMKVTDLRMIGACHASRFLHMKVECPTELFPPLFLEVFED
Assay: fluorescence anisotropy
Details: T3, very weak, Kd not determinable; Fluorescence anisotropy: 10 nM DNA, 20 mM Hepes pH 8.0, 50 mM NaCl, 1 mM MgCl2, 3 mM DTT, 5% glycerol, 10°C; agarose gel 1.3% in 0.5x TBE; recombinant protein; residues 102-461; protein details: His (pET28a); label: 5' fluorescein (FITC) on forward strand

| Sequence | binding result |
| --- | --- |
| CACTTGATAACAGAAAGTGATAACTCT (double strand) [GATA-RE (canonical)] | binds more weakly |
| TCAATAGATGCTTTTCAGATAAGAA (double strand) [TSH GATA-RE] | binds more weakly |
